Test results from PubChem BioAssay (NCATS).
Values joined by “and” are separate entries in the source; they are usually repeats but may differ in a detail not shown here. Equal entries are not always repeated. The list shows a part of the results. Further columns of the screen follow, without active or inactive calls. Most of these compounds were active or inconclusive in the main read-out, so they are no random draw. Words in brackets tell the shape of the fitted curve; partial curves, single points and poor fits give uncertain potencies.

test: qHTS assay for small molecule antagonists of peroxisome proliferator-activated receptor gamma signaling (AID 588537); details: HEK293 PPARg-UAS-bla, beta-lactamase ratio, antagonist mode; measured here: W460 blue channel
In short: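 Fluorescence at 460 and 530 nm (405 nm excitation) reported beta-lactamase cleavage of CCF4 after 2 h room-temperature loading. HEK293 reporter cells in 1% charcoal/dextran-treated FBS had received compound and rosiglitazone for 16 h.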

SMILES | AC50
CCOP(=O)(NC(C)C)Oc1ccc(S(C)=O)c(C)c1 (configuration not stated) | 0.00112 µM [falling, full curve, poor fit]
CC(C)CON=O | 50.1 µM [rising, single point]
O=[N+]([O-])c1ccccc1-c1ccccc1 | 50.1 µM [rising, single point]
Cc1ccnc2c1NC(=O)c1cccnc1N2C1CC1 | 50.1 µM [rising, single point]
Oc1cc(Cl)ccc1Cl | 50.1 µM [rising, single point]
Oc1c(Cl)c(Cl)cc(Cl)c1Cl | 28.2 µM [falling, partial curve]
CCCCOC(=O)c1ccccc1C(=O)OCc1ccccc1 | 50.1 µM [falling, single point]
O=Cc1ccc2c(c1)OCO2 | 50.1 µM [rising, single point]
O=NN(CCO)CCO | 50.1 µM [rising, single point]
CCOP(=O)(OCC)Oc1ccc2c(C)c(Cl)c(=O)oc2c1 | 7.08 µM [falling, partial curve, poor fit]
CNC(=O)O/N=C/C(C)(C)S(C)=O (configuration not stated) | 50.1 µM [rising, single point]
O=C(O)c1cc(Cl)ccc1Cl | 63.1 µM [rising, single point]
C[C@]12CCC(=O)C[C@@H]1CC[C@@H]1[C@@H]2CC[C@]2(C)[C@@H](O)CC[C@@H]12 | 50.1 µM [rising, single point]
COC(=O)NC(=S)Nc1ccccc1NC(=S)NC(=O)OC | 0.00316 µM [falling, full curve, poor fit]
O=[N+]([O-])c1cccc2c([N+](=O)[O-])cccc12 | 35.5 µM [rising, partial curve, poor fit]
O=C(Cl)OCc1ccccc1 | 63.1 µM [rising, single point]
[O-][Cl+2]([O-])O | 44.7 µM [rising, single point]
CCOP(=S)(OCC)Oc1cc(C)nc(C(C)C)n1 | 50.1 µM [falling, single point]
COC(C)(C)CCC[C@H](C)C/C=C/C(C)=C/C(=O)OC(C)C | 44.7 µM [falling, partial curve, poor fit]

Rewritten field by field: entries from further up
CCOP(=O)(NC(C)C)Oc1ccc(S(C)=O)c(C)c1 (configuration not stated)
  AC50: 0.00112 µM [falling, full curve, poor fit]
CC(C)CON=O
  AC50: 50.1 µM [rising, single point]

Going on with the list.

SMILES | AC50
O=C(Cl)C(Cl)(Cl)Cl | 0.000891 µM [falling, full curve, poor fit]
CC(C)(C)OOC(C)(C)C | 50.1 µM [rising, single point]
CCNc1nc(NC(C)C)nc(OC)n1 | 0.00178 µM [falling, full curve, poor fit]
CCC(C)(C)c1cc(-n2nc3ccccc3n2)c(O)c(C(C)(C)CC)c1 | 0.00112 µM [falling, full curve, poor fit]
N#Cc1c(Cl)cccc1Cl | 0.00158 µM [falling, full curve, poor fit]
O=C(O)C(Cl)Br (configuration not stated) | 50.1 µM [rising, single point]
Clc1cccc(Cl)c1 | 70.8 µM [rising, single point]
ClC(Cl)=C(Cl)C(Cl)=C(Cl)Cl | 50.1 µM [rising, single point] and 35.5 nM [falling, full curve, poor fit]
C#CCC1=C(C)[C@H](OC(=O)[C@H]2[C@H](C=C(C)C)C2(C)C)CC1=O | 31.6 µM [falling, partial curve, poor fit]
Cc1ccc(N)cc1C | 44.7 µM [rising, single point]
C=CCOC(=O)c1ccccc1N | 63.1 µM [rising, single point]
CCCCCl | 50.1 µM [rising, single point]
ClC(Cl)c1ccccc1 | 70.8 µM [rising, single point]
C=CC(C)=O | 50.1 µM [rising, single point]
CC(O)CCl (configuration not stated) | 0.00282 µM [falling, full curve, poor fit]
O=P(OCCCl)(OCCCl)OCCCl | 50.1 µM [rising, single point]
FC(F)C(F)(F)OCC(Cn1cncn1)c1ccc(Cl)cc1Cl (configuration not stated) | 0.00126 µM [falling, full curve, poor fit]
CCOP(=S)(OCC)SCSC(C)(C)C | 70.8 µM [rising, single point]
